Reference: publication PMC3711432, “The Fanconi anemia associated protein FAAP24 uses two substrate specific binding surfaces for DNA recognition”

Experiments:
FAAP24 HhH domain [1] = molecular target: T1, FAAP24 HhH domain (UniProt Q9BTP7); assay: NMR; details: NMR: 50 mM NaHPO4 pH 6.5, 100 mM NaCl, 8% D2O, 298 K, recombinant protein, residues 139-215, protein details: N-terminal His
T1 sequence (looked up): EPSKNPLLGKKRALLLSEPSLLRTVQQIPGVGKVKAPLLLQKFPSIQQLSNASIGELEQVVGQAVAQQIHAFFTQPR

FAAP24 HhH domain [2] = molecular target: T1, FAAP24 HhH domain; assay: EMSA; details: 400 mM NaCl, EMSA: 10 mM Tris pH 7.0, 10 mM NaCl (high salt: 50 mM NaHPO4, 400 mM NaCl), 5% glycerol, 1 mM DTT, 20 ug/ml BSA, on ice, gel at 4 C, recombinant protein, residues 139-215, protein details: N-terminal His

“GGGCGGCGGGTTTTTTTTTT / TTTTTTTTTTCCCGCCGCCC [F10 splayed arm]”: binds more weakly (FAAP24 HhH domain [1]; 400 mM NaCl, ~10-20% of CSPs at 100 mM NaCl).
“TGCGAATTCATATGCAATATTCAGTGGCTGAGCTACTGG [ss39]”: binds more weakly (FAAP24 HhH domain [2]; too weak to quantify, label: radiolabeled, single-stranded DNA).
“GGCGGGGCGGGGGCGGCGGG (double strand) [ds20]”: binds more weakly (FAAP24 HhH domain [1]; 400 mM NaCl, smaller CSPs).
“GGGCGGCGGGTTTTTTTTTTGGCGGGGCGG / CCGCCCCGCCTTTTTTTTTTCCCGCCGCCC [B10 bubble]”: binds more weakly (FAAP24 HhH domain [2]).
“GGGCGGCGGGTTTTTTTTTTGGCGGGGCGG (double strand) [ds30]”: binds more weakly (FAAP24 HhH domain [2]; too weak to quantify, label: radiolabeled).
“GGGCGGCGGGCGGATAGATTGAAATCTTAG / CCCGCCGCCC [3' extension]”: binds more weakly (FAAP24 HhH domain [1]; 100 mM NaCl, smaller CSPs, lower affinity).

A weaker result is weaker than the reference pair of the same experiment. Protein sequences can lack the tags named with them. Construct, isoform or probe ends are uncertain for at least one entry. For part of these data: At least one verdict was read from the data and is not stated in words by the source.
